Measured values reported in the supplement of paper PMC10849652.
This is one part of the list.

Chains of the proteins cited; added tags and fusions are not shown. Lines headed by an entry give the natural chain unless they say otherwise; changes in a name come on top.
UniProt O00273: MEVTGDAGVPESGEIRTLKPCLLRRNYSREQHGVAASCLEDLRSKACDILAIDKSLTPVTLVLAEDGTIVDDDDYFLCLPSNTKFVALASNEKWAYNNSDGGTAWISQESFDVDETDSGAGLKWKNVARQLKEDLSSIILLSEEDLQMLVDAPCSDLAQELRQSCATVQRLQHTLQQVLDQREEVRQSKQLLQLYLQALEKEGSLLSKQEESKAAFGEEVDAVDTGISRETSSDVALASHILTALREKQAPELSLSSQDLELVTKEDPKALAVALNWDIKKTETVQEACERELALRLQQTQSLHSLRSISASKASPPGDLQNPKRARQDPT
UniProt Q6P3S1: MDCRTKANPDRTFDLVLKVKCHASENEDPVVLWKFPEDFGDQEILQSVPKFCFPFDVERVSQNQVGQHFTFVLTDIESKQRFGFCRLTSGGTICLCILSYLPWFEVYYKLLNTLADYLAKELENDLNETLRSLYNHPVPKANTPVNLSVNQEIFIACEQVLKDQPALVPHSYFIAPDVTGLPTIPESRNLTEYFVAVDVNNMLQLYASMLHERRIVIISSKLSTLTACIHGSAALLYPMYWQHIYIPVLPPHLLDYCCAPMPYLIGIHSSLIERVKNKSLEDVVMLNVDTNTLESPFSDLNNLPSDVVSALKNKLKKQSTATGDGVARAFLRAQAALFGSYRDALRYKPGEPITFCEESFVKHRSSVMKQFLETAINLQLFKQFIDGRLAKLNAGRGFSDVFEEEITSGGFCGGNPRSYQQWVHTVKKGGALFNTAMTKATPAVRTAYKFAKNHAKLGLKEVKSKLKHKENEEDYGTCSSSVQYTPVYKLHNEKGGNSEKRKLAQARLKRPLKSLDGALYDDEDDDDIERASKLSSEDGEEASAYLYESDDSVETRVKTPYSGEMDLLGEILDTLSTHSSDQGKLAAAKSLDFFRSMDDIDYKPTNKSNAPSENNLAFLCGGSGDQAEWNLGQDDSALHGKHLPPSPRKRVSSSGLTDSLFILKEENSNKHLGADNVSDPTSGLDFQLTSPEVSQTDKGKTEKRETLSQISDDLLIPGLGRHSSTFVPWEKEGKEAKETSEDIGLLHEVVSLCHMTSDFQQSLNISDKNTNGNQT
UniProt Q5D0E6: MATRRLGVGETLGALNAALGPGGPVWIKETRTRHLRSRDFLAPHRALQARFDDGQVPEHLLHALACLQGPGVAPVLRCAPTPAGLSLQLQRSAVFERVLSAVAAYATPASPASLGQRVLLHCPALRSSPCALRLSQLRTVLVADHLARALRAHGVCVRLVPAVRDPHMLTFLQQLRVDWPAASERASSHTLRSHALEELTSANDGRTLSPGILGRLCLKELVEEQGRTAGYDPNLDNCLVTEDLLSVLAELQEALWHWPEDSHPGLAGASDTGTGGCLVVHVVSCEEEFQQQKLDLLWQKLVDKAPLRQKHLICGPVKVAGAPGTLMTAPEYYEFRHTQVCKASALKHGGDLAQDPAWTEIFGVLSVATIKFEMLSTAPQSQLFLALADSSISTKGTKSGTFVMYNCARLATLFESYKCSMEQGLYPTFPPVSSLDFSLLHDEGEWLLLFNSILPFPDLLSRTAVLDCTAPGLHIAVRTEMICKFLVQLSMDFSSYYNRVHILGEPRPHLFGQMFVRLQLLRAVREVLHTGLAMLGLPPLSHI
UniProt Q9H9R9: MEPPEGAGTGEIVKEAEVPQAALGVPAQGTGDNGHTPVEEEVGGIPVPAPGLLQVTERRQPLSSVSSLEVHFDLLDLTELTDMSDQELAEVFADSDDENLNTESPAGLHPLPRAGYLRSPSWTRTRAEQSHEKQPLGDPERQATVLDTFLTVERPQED
UniProt O94760: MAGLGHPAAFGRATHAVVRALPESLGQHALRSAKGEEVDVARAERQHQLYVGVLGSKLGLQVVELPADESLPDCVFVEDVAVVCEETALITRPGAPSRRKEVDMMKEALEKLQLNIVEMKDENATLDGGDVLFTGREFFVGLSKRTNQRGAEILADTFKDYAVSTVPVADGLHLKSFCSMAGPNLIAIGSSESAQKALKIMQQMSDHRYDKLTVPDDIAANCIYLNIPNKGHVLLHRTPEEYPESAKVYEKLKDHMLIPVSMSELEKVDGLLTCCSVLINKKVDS
UniProt Q9BSY9: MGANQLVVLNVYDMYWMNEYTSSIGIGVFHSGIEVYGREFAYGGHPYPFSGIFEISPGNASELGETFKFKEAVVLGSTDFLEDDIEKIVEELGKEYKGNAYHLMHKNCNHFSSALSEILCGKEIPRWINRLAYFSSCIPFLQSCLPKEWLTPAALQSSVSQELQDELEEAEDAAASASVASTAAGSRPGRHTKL
UniProt P17661, whole entry, looked up: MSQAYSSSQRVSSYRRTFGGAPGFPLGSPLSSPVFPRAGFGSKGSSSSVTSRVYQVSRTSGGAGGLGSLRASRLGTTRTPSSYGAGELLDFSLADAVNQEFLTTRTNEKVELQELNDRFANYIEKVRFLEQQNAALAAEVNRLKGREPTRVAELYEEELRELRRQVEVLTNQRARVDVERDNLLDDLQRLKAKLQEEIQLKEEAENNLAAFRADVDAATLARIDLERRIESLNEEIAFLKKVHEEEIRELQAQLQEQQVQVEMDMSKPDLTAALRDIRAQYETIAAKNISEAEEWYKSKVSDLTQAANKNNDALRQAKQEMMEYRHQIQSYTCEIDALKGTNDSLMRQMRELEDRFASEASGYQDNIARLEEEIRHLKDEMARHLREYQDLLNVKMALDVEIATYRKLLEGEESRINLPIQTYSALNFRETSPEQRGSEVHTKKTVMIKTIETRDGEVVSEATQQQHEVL
UniProt Q9Y4D1, whole entry, looked up: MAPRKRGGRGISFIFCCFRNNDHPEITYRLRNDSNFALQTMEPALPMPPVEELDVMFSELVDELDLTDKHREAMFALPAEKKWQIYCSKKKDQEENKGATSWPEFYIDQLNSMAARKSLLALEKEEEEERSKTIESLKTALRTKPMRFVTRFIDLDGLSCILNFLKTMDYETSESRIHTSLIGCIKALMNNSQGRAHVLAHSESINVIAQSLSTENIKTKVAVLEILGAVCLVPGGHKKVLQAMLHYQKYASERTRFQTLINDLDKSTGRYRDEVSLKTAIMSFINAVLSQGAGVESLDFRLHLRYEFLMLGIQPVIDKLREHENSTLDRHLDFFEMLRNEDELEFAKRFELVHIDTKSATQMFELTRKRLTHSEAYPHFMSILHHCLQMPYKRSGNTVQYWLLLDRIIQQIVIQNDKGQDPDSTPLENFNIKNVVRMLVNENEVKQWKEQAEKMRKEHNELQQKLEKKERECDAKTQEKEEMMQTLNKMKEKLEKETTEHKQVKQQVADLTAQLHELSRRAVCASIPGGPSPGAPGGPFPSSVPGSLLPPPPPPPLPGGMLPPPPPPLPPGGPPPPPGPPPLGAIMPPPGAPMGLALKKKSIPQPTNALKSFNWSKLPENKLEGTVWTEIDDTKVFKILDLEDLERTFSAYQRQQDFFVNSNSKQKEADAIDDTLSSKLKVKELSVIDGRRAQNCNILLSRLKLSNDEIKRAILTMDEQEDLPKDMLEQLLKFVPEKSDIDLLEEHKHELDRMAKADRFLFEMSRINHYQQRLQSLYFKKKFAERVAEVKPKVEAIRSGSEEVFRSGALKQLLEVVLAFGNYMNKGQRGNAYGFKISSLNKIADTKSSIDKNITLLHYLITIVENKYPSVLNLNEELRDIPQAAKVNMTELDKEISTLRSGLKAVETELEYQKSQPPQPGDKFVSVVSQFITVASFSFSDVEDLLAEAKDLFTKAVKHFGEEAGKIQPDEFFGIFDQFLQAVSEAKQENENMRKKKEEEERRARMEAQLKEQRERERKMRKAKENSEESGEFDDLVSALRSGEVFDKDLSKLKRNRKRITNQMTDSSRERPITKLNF
UniProt Q96QD5: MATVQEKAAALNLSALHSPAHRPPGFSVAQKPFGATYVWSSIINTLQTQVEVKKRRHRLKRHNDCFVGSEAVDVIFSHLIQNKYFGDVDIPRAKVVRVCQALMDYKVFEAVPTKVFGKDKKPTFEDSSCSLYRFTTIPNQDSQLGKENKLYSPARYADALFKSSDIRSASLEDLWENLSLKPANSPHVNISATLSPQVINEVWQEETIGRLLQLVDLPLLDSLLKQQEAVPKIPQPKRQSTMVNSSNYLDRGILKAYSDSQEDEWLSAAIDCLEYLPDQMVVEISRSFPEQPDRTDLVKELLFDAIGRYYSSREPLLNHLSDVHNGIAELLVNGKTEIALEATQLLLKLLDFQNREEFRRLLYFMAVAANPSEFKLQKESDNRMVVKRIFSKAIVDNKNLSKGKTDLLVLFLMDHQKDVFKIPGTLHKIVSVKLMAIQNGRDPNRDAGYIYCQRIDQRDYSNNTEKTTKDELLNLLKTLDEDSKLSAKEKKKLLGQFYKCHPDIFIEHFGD
UniProt Q8N8Z6: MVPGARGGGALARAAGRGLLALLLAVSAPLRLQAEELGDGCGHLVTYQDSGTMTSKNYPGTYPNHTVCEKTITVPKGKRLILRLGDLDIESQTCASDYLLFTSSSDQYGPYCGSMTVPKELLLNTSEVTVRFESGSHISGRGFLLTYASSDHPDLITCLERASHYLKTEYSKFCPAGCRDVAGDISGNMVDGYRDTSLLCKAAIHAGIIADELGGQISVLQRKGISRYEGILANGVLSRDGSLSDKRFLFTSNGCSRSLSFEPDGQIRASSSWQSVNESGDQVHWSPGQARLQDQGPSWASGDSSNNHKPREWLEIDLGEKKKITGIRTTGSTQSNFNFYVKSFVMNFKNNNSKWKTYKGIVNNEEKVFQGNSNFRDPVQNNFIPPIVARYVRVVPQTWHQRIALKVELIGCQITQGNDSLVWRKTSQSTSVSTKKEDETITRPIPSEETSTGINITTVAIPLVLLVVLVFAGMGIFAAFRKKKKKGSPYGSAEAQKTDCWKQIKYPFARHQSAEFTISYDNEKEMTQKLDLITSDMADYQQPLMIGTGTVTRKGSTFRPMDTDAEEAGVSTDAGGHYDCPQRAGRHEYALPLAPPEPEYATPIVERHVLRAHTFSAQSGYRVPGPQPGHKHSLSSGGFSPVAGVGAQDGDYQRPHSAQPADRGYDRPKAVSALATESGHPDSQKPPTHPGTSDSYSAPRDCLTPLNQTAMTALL
UniProt P35638, whole entry, looked up: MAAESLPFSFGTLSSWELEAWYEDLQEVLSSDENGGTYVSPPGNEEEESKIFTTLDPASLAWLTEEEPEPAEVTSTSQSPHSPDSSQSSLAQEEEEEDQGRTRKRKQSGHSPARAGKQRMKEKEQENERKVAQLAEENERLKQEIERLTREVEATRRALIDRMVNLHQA
UniProt Q6ZN54: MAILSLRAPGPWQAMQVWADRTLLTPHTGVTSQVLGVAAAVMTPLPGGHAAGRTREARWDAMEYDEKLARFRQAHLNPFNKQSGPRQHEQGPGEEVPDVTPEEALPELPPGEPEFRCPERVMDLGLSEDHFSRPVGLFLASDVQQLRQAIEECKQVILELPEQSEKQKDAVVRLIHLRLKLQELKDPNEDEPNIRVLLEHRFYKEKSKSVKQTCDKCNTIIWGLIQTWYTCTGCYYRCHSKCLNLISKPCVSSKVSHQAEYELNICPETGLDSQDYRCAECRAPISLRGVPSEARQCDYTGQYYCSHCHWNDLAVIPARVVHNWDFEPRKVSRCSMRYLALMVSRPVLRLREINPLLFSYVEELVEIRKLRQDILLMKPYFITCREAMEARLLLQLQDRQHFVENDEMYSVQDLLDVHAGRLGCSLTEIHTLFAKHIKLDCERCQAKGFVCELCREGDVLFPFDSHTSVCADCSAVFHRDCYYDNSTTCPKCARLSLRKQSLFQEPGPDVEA
UniProt Q8IWE4: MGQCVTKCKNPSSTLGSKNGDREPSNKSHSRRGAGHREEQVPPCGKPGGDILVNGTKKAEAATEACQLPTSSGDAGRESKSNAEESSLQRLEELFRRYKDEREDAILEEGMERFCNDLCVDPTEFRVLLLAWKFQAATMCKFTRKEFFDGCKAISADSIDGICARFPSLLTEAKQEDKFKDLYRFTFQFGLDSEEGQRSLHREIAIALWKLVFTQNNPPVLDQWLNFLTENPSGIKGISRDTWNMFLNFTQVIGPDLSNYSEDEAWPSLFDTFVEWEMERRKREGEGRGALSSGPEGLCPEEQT

Key:
Experiment in all cases: log2 fold change, soluble protein after heating vs DMSO (PISA); higher = thermal stabilisation; K562 lysate, 10 uM; active = over 0.2 and 3.5 SD of the protein, either way, in both replicates (recomputed)
alvocidib = compound: CN1CC[C@H](c2c(O)cc(O)c3c(=O)cc(-c4ccccc4Cl)oc23)[C@H](O)C1 [alvocidib]
Summary of the method: (§1)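 Dounce homogenisation of K562 pellets in PBS pH 7.4 with 1 mM MgCl2 produced a crude extract, used at 1 mg/mL protein. Exposure to 10 μM compound lasted 30 min, and aliquots were then heated for 3 min across 48°C-58°C, pooled and brought to 0.5% NP-40 at 4°C. The supernatant after 21,000xg for 90 min was quantified by TMTpro 16plex LC-MS/MS with channel sums equalised. Duplicate values are given as log-two fold change in thermal stability relative to solvent controls.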

[1] = compound: CNC(=O)C1=CC=CC=C1NC2=NC(=NC=C2Cl)NC3=C(C=C(C=C3)N4CCOCC4)OC
Summary of the method: as §1

defactinib = compound: CNC(=O)c1ccc(Nc2ncc(C(F)(F)F)c(NCc3nccnc3N(C)S(C)(=O)=O)n2)cc1 [defactinib]
Summary of the method: as §1

[2] = compound: CNc1nc(-c2ccc3c(N)n[nH]c3c2)cc(N2C[C@@H](C(=O)NC3CCCCC3)CC[C@H]2C)n1
Summary of the method: as §1

encorafenib = compound: COC(=O)N[C@@H](C)CNc1nccc(-c2cn(C(C)C)nc2-c2cc(Cl)cc(NS(C)(=O)=O)c2F)n1 [encorafenib]
Summary of the method: as §1

[3] = compound: COC(=O)[C@H](CCSC)NC(=O)C1=C(C=C(C=C1)NC[C@H](CS)N)C2=CC=CC=C2
Summary of the method: as §1

pictilisib = compound: CS(=O)(=O)N1CCN(Cc2cc3nc(-c4cccc5[nH]ncc45)nc(N4CCOCC4)c3s2)CC1 [pictilisib]
Summary of the method: as §1

crizotinib = compound: C[C@@H](Oc1cc(-c2cnn(C3CCNCC3)c2)cnc1N)c1c(Cl)ccc(F)c1Cl [crizotinib]
Summary of the method: as §1

[4] = compound: C[C@H](C1=CC=C(C=C1)C(=O)NC2=C3C=CNC3=NC=C2)N
Summary of the method: as §1

duvelisib = compound: C[C@H](Nc1ncnc2nc[nH]c12)c1cc2cccc(Cl)c2c(=O)n1-c1ccccc1 [duvelisib]
Summary of the method: as §1

gandotinib = compound: Cc1cc(Nc2cc(CN3CCOCC3)c3nc(C)c(Cc4ccc(Cl)cc4F)n3n2)n[nH]1 [gandotinib]
Summary of the method: as §1

tozasertib = compound: Cc1cc(Nc2cc(N3CCN(C)CC3)nc(Sc3ccc(NC(=O)C4CC4)cc3)n2)n[nH]1 [tozasertib]
Summary of the method: as §1

doramapimod = compound: Cc1ccc(-n2nc(C(C)(C)C)cc2NC(=O)Nc2ccc(OCCN3CCOCC3)c3ccccc23)cc1 [doramapimod]
Summary of the method: as §1

bafetinib = compound: Cc1ccc(NC(=O)c2ccc(CN3CC[C@H](N(C)C)C3)c(C(F)(F)F)c2)cc1Nc1nccc(-c2cncnc2)n1 [bafetinib]
Summary of the method: as §1

[5] = compound: Cc1cccc(CC(=O)N2CCc3c2ccc(-c2cn(C)c4ncnc(N)c24)c3F)n1
Summary of the method: as §1

Tubastatin A = compound: CN1CCc2c(c3ccccc3n2Cc2ccc(C(=O)NO)cc2)C1 [Tubastatin A]
Summary of the method: as §1

alisertib = compound: COc1cc(Nc2ncc3c(n2)-c2ccc(Cl)cc2C(c2c(F)cccc2OC)=NC3)ccc1C(=O)O [alisertib]
Summary of the method: as §1

[6] = compound: COc1cc2nc(-c3cc(F)ccc3O)nc(N[C@@H]3CNC[C@H]3C(C)(C)O)c2cc1OC
Summary of the method: as §1

gefitinib = compound: COc1cc2ncnc(Nc3ccc(F)c(Cl)c3)c2cc1OCCCN1CCOCC1 [gefitinib]
Summary of the method: as §1

lapatinib = compound: CS(=O)(=O)CCNCc1ccc(-c2ccc3ncnc(Nc4ccc(OCc5cccc(F)c5)c(Cl)c4)c3c2)o1 [lapatinib]
Summary of the method: as §1

Measured: log2 fold change

DCP1B (UniProt Q8IZD4)
inactive: alvocidib 0.089 | [1] -0.319 | defactinib 0.137 | [2] 0.131 | encorafenib 0.175 | [3] -0.046 | pictilisib -0.076 | crizotinib 0.012 | [4] -0.012 | duvelisib -0.026 | gandotinib -0.014 | tozasertib -0.036 | doramapimod -0.218 | bafetinib 0.013 | [5] 0.081

DFFA isoform 2 (UniProt O00273)
inactive: alvocidib 0.079 | Tubastatin A 0.096 | [1] -0.213 | defactinib -0.162 | [2] 0.082 | alisertib -0.023 | [6] -0.023 | gefitinib -0.007 | lapatinib -0.069 | pictilisib 0.127 | crizotinib -0.056 | [4] 0.094 | duvelisib -0.069 | gandotinib 0.008 | doramapimod 0.034 | bafetinib -0.039 | [5] -0.1

DENND1B (UniProt Q6P3S1)
inactive: alvocidib 0.074 | Tubastatin A 0.152 | [1] -0.105 | defactinib 0.099 | [2] 0.023 | alisertib -0.146 | [6] -0.226 | gefitinib -0.102 | lapatinib 0.1 | pictilisib 0.096 | crizotinib -0.019 | [4] 0.003 | duvelisib -0.08 | gandotinib -0.194 | doramapimod -0.072 | bafetinib 0.154 | [5] -0.03

DCAF10 (UniProt Q5QP82)
inactive: alvocidib -0.001 | Tubastatin A -0.146 | [1] -0.032 | defactinib 0.054 | [2] 0.128 | encorafenib 0.055 | [3] -0.071 | alisertib -0.019 | gefitinib -0.031 | pictilisib 0.009 | crizotinib 0.047 | [4] -0.074 | duvelisib -0.003 | gandotinib -0.182 | tozasertib -0.004 | doramapimod -0.023 | bafetinib 0.007 | [5] 0.164

DALRD3 (UniProt Q5D0E6)
inactive: alvocidib -0.016 | [1] -0.026 | defactinib 0.033 | encorafenib 0.054 | [3] -0.391 | [6] -0.004 | lapatinib 0.021 | [4] -0.131 | gandotinib -0.087 | tozasertib 0.139 | [5] 0.096

DBNDD1 isoform 3 (UniProt Q9H9R9)
inactive: alvocidib -0.045 | Tubastatin A -0.037 | [1] 0.047 | [2] 0.02 | encorafenib -0.123 | [3] 0.081 | alisertib 0.056 | [6] -0.116 | gefitinib -0.224 | lapatinib 0.05 | crizotinib -0.081 | [4] -0.063 | duvelisib 0.018 | gandotinib 0.073 | tozasertib 0.162 | doramapimod 0.041 | [5] -0.024

Reprinted at random: 2 entries already listed.
DENND1B (UniProt Q6P3S1)
inactive: alvocidib 0.074 | Tubastatin A 0.152 | [1] -0.105 | defactinib 0.099 | [2] 0.023 | alisertib -0.146 | [6] -0.226 | gefitinib -0.102 | lapatinib 0.1 | pictilisib 0.096 | crizotinib -0.019 | [4] 0.003 | duvelisib -0.08 | gandotinib -0.194 | doramapimod -0.072 | bafetinib 0.154 | [5] -0.03

DCP1B (UniProt Q8IZD4)
inactive: alvocidib 0.089 | [1] -0.319 | defactinib 0.137 | [2] 0.131 | encorafenib 0.175 | [3] -0.046 | pictilisib -0.076 | crizotinib 0.012 | [4] -0.012 | duvelisib -0.026 | gandotinib -0.014 | tozasertib -0.036 | doramapimod -0.218 | bafetinib 0.013 | [5] 0.081

More results.

DDAH1 (UniProt O94760)
inactive: alvocidib 0.015 | Tubastatin A 0.007 | [1] 0.037 | defactinib 0.014 | [2] -0.002 | encorafenib 0 | [3] 0.009 | [6] 0.003 | lapatinib 0.011 | crizotinib 0 | [4] 0.059 | duvelisib 0.186 | gandotinib -0.039 | tozasertib -0.044 | doramapimod -0.058 | [5] 0.196

DESI2 (UniProt Q9BSY9)
inactive: alvocidib -0.07 | defactinib 0.016 | encorafenib -0.057 | [3] -0.014 | [4] -0.095 | gandotinib -0.078 | tozasertib -0.095 | [5] 0.316

DES (UniProt P17661)
inactive: alvocidib -0.144 | Tubastatin A 0.091 | [1] -0.023 | defactinib -0.056 | [2] 0.26 | encorafenib 0 | [3] -0.029 | alisertib -0.017 | [6] 0.117 | gefitinib 0.04 | lapatinib -0.079 | pictilisib -0.03 | crizotinib -0.082 | [4] -0.301 | duvelisib 0.098 | gandotinib 0.13 | tozasertib -0.014 | doramapimod 0.047 | bafetinib -0.051 | [5] 0.121

DAAM1 (UniProt Q9Y4D1)
inactive: alvocidib -0.023 | [1] -0.024 | defactinib 0.099 | [2] -0.242 | [6] -0.331 | lapatinib 0.054 | pictilisib 0.03 | crizotinib -0.174 | [4] 0.184 | duvelisib -0.017 | gandotinib -0.07 | doramapimod -0.083 | bafetinib -0.015 | [5] 0.144

DEPDC7 (UniProt Q96QD5)
inactive: alvocidib 0.15 | encorafenib -0.08 | [3] 0.109 | alisertib -0.154 | gefitinib 0.152 | [4] -0.141 | gandotinib -0.378 | tozasertib -0.015 | [5] 0.075

DDX60L (UniProt Q5H9U9)
inactive: [2] 0.021 | [6] -0.012 | lapatinib 0.075 | duvelisib 0.121

DCBLD1 (UniProt Q8N8Z6)
inactive: alvocidib 0.045 | [2] -0.443 | encorafenib -0.232 | [3] 0.059 | [6] 0.141 | lapatinib 0.175 | [4] -0.102 | duvelisib -0.06 | gandotinib -0.022 | tozasertib 0.042 | [5] 0.062

DDIT3 isoform 2 (UniProt P35638)
inactive: defactinib 0.009 | encorafenib 0.018 | [3] -0.041 | alisertib -0.043 | gefitinib 0.015 | crizotinib -0.104 | tozasertib 0.013 | doramapimod -0.043

DEF8 (UniProt Q6ZN54)
inactive: [1] 0.001 | defactinib 0.153 | [2] 0.03 | encorafenib 0.145 | [3] 0.283 | pictilisib -0.02 | crizotinib -0.137 | duvelisib -0.01 | tozasertib 0.013 | doramapimod -0.153 | bafetinib -0.123

DCUN1D3 (UniProt Q8IWE4)
inactive: alvocidib -0.131 | [2] 0.288 | encorafenib 0.188 | [3] -0.146 | alisertib 0.081 | gefitinib 0.173 | pictilisib -0.019 | [4] -0.254 | duvelisib -0.088 | gandotinib -0.598 | tozasertib 0.07 | bafetinib 0.078 | [5] -0.018
